Measured values published in publication PMC4764573.
No constants are given. Whether binding was seen depends on the method and setting. A result given as binding can be weak or reduced; the word gives no strength.

Amino acid sequences for entries named in this document (tags omitted). A change or cut given only in a name is not applied to a line headed by its entry.
UniProt B7ZR20: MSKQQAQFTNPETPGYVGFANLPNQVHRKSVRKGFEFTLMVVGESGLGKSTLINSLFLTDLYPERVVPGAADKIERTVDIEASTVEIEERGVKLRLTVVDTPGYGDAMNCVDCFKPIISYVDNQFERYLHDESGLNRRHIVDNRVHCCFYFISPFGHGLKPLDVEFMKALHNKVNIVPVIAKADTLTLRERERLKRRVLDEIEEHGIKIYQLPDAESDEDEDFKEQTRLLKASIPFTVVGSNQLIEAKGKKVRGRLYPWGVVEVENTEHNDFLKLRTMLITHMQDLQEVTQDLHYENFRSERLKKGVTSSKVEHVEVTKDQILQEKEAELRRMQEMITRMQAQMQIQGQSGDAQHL
UniProt Q6P5F9: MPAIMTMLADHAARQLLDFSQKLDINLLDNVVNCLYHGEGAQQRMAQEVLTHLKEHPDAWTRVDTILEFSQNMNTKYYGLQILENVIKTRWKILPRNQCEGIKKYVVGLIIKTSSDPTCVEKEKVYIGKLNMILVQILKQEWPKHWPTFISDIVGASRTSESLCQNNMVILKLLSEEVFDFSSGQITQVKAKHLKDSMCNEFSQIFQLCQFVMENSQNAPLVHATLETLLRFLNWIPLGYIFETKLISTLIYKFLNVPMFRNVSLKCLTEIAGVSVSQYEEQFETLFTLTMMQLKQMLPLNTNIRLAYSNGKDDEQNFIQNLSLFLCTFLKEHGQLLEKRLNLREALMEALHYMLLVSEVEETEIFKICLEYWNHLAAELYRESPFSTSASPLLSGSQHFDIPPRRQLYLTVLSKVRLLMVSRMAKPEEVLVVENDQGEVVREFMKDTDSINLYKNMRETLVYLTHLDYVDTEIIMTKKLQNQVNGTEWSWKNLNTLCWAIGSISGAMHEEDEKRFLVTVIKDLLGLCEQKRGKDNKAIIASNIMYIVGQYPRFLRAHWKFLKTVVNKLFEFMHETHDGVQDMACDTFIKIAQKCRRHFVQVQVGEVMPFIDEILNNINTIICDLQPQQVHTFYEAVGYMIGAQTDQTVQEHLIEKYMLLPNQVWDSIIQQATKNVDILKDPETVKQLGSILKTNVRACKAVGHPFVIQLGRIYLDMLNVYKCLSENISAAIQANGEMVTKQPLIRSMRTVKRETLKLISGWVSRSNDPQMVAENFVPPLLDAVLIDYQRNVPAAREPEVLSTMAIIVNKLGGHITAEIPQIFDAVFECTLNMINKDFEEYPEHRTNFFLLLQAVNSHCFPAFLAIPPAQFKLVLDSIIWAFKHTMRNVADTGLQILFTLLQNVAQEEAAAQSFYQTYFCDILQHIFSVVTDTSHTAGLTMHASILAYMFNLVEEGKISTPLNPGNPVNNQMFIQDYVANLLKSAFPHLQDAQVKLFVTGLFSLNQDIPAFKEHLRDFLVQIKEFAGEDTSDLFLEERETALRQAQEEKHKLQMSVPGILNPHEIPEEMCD

Molecular target: H14-ZZ-Sumo tagged Septin-2 (Xenopus) (UniProt B7ZR20)
Assay: pull-down; 250 pmoles His14-ZZ-bdSUMO tagged candidate on 20 μl anti-ZZ beads; 300 pmoles mmCRM1 with or without 1500 pmoles RanGTP (hsRanQ69L^5-180) in 500 µl; 3 hr at 4°C; elution by bdSENP1 protease; SDS-PAGE and Coomassie-staining; both purified

- binding: binds
Substance: mmCRM1 (mouse CRM1), in solution in the direct binding assay (from UniProt Q6P5F9 1-1071)
